Experimental data as given in the supplement of paper PMC11006884.
This is a selection; strong and weak results do not stand in their true shares. The data scatter; read single values as rough.

Chains of the proteins cited; added tags and fusions are not shown. Lines headed by an entry give the natural chain unless they say otherwise; changes in a name come on top.
UniProt O95831, whole entry, looked up: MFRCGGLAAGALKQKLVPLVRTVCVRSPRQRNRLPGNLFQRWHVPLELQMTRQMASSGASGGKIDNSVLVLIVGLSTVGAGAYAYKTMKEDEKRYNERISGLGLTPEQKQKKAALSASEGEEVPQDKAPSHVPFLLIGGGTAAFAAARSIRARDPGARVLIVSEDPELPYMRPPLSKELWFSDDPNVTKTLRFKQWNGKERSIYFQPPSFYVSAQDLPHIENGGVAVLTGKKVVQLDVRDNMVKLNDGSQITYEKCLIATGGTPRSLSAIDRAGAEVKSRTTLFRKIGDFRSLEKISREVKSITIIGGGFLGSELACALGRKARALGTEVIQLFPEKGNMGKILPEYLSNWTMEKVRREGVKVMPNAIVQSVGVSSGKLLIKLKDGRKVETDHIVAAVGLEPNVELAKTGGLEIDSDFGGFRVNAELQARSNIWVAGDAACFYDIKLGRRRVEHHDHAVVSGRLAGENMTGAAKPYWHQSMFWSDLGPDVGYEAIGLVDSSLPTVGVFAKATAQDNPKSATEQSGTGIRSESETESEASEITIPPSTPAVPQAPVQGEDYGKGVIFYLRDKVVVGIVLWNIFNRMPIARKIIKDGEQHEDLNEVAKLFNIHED
UniProt O95239: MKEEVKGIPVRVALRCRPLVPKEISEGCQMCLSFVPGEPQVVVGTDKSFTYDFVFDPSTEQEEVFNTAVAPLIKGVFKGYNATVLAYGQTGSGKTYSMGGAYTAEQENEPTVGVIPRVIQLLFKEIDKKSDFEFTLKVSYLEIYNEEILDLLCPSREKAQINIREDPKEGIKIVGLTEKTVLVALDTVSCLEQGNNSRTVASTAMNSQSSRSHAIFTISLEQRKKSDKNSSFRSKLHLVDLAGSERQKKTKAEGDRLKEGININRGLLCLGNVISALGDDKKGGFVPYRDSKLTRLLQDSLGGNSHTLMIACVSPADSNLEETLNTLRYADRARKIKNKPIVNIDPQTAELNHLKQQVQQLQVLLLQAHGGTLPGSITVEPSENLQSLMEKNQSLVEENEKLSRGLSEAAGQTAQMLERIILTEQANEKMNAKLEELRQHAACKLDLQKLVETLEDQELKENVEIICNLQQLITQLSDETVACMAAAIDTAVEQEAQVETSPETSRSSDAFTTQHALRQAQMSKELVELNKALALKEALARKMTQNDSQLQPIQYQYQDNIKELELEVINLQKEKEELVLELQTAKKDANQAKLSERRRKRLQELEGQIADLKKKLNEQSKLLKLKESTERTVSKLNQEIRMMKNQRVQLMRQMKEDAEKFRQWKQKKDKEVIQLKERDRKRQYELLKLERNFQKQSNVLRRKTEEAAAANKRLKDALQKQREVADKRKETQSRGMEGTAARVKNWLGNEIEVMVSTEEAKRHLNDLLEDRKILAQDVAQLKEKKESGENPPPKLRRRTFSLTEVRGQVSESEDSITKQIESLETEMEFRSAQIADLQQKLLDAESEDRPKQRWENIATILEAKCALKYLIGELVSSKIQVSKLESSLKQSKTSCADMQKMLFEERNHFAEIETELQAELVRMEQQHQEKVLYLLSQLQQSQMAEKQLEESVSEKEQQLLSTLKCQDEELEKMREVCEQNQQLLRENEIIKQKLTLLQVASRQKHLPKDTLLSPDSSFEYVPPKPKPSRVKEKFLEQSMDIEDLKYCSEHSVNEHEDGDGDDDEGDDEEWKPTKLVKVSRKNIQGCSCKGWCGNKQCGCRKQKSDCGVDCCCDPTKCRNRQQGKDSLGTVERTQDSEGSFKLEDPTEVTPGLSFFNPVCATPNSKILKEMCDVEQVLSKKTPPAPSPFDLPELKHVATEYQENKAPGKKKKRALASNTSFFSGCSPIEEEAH
UniProt O94885: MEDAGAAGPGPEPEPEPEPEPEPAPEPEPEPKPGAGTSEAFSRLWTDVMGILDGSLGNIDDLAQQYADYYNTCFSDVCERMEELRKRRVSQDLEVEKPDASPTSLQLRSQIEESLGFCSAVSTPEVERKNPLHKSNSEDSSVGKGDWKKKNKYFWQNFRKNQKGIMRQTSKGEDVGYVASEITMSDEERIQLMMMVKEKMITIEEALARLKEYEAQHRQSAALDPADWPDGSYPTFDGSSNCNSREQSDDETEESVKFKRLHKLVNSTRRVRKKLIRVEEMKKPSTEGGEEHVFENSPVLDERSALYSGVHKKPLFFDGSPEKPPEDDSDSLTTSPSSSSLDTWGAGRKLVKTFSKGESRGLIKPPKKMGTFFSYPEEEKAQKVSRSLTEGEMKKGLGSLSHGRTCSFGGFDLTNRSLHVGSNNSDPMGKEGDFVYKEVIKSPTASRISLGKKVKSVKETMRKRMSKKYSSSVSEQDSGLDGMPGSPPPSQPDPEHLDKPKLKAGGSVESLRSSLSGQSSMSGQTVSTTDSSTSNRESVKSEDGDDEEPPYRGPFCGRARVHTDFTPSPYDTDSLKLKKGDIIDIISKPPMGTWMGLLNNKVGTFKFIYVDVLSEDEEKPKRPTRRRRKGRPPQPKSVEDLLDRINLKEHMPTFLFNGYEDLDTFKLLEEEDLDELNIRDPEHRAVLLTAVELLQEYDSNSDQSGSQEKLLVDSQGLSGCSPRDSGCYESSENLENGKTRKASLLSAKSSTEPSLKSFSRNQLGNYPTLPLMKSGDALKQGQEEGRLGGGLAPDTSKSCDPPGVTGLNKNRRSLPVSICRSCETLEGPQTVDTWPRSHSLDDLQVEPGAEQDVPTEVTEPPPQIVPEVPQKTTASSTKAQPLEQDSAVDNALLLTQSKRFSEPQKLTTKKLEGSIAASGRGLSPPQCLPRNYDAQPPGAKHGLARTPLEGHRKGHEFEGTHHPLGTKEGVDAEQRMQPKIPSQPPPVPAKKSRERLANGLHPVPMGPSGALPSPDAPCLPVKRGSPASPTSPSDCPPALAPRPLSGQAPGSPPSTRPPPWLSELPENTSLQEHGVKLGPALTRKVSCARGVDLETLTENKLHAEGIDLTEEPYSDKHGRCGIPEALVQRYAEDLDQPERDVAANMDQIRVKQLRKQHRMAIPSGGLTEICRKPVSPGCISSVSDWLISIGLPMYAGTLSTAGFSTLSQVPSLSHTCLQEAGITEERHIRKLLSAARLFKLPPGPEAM
UniProt P00367: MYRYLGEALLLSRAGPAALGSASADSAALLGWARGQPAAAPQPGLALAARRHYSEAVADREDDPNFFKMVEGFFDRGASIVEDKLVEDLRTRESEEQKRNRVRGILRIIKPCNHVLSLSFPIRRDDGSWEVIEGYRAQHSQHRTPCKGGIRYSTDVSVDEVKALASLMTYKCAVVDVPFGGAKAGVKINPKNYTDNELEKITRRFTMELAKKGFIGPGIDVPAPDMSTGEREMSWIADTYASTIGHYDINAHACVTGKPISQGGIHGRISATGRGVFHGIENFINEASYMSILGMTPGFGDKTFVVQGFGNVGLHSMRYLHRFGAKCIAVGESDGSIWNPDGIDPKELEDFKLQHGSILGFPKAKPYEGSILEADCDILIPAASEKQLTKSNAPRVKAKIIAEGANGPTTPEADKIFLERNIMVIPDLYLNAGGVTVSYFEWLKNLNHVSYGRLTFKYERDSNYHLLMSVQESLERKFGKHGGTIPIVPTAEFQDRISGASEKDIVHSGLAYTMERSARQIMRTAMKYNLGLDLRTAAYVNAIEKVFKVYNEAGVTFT
UniProt O94819: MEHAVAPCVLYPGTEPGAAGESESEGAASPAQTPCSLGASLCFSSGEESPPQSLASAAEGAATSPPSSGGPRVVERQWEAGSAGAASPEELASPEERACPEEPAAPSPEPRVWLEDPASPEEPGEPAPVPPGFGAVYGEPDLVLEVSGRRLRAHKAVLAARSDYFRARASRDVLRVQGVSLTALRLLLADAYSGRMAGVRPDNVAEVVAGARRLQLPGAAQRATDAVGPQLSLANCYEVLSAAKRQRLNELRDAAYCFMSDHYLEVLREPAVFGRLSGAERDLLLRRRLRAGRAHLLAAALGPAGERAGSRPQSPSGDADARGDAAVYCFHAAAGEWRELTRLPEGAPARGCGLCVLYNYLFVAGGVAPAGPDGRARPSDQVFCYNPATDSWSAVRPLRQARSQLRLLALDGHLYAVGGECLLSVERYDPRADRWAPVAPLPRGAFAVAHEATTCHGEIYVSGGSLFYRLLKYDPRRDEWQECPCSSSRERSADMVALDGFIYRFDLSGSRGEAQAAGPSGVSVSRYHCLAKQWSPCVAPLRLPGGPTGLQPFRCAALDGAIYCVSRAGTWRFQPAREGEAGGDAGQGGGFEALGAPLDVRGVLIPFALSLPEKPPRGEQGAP
UniProt P07814: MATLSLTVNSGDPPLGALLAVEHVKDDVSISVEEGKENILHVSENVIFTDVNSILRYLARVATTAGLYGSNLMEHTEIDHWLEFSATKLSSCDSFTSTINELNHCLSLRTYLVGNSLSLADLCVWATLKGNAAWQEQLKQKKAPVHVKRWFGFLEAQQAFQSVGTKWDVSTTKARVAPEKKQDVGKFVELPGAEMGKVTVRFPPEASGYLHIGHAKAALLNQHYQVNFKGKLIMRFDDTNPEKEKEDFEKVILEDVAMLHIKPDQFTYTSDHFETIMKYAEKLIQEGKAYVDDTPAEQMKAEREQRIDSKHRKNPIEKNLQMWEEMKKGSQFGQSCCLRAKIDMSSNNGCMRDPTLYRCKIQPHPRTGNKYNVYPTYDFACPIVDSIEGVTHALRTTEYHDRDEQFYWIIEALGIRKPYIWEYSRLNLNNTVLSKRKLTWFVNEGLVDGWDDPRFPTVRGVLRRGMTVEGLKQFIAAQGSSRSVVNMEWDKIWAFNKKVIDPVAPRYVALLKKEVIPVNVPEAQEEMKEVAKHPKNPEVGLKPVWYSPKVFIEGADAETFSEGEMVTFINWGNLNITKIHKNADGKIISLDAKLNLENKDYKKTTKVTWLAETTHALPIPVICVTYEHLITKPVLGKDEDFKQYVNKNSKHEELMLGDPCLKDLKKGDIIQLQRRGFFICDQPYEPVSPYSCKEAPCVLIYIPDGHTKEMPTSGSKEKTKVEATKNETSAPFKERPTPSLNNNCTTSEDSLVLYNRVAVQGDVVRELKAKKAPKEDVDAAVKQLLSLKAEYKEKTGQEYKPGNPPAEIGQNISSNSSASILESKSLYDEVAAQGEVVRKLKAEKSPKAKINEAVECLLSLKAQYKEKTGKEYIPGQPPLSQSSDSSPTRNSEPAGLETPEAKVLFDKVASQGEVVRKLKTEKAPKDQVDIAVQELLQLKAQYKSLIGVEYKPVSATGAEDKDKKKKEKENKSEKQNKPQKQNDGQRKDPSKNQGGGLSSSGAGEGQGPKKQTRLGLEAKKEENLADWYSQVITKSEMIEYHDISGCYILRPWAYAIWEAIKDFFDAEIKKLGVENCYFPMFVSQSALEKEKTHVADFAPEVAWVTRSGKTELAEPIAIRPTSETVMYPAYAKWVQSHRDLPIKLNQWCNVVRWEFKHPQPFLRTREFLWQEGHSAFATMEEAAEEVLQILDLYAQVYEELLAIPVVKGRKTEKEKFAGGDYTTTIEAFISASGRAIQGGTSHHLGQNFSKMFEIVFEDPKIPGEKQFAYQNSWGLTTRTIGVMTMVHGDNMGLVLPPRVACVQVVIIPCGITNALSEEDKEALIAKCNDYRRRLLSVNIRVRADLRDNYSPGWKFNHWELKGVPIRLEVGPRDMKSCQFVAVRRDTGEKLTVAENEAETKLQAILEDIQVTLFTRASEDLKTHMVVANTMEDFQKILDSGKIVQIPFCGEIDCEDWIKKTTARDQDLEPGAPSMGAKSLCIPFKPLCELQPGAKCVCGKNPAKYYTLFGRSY
UniProt P05386, whole entry, looked up: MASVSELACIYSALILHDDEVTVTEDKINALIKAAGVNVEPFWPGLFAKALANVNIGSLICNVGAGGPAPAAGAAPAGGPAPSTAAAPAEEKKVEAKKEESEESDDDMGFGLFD
UniProt P04818: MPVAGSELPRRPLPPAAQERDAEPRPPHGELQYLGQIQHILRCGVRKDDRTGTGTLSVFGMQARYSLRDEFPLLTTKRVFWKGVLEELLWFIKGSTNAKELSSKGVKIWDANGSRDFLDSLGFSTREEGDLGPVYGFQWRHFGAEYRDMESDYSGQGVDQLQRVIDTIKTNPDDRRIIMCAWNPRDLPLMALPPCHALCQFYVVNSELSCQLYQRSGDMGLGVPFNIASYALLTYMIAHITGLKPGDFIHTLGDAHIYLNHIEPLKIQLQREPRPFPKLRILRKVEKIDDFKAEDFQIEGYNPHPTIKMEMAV
UniProt O95551: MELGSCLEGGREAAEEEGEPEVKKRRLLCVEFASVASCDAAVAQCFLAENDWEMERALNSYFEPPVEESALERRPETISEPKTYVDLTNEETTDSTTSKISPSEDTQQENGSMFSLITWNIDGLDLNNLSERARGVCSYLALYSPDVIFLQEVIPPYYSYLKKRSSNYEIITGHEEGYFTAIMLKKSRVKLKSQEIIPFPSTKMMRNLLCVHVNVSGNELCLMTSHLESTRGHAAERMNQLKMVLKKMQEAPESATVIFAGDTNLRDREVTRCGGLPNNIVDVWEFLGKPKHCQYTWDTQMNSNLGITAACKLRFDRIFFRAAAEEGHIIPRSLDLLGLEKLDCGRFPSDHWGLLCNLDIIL

What follows are targets tested with COC(=O)/C=C/c1ccccc1 [methyl cinnamate] (assay: log2 ratio of iodoacetamide-alkyne labeling of the cysteine site, DMSO over compound (competition); higher = stronger covalent engagement of the cysteine by the compound, active = 1 or more). Settings: 500 µM; treatment time 1 h; system: HEK293T cell lysate.
Outline: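 HEK293T lysate (2 mg/mL) was incubated with electrophile (500 µM) or vehicle for 1 h at ambient temperature and then with iodoacetamide alkyne for 1 h. Labelled proteins were clicked to sCIP-TMT reagents, pooled, digested, enriched on streptavidin and measured by Orbitrap Eclipse LC-MS/MS with FAIMS, with FragPipe quantification. The per-cysteine log2 competition ratio is mean control-channel reporter intensity over mean compound-channel reporter intensity. Across three replicates with duplicate channels, cysteines quantified in only one replicate were excluded.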

log2 ratio of iodoacetamide-alkyne labeling, inactive:
UniProt O94763_C448 0.154
AIFM1 C256 (UniProt O95831) 0.0597
UniProt P04350_C12 0.12
PRPF6 C807 (UniProt O94906) -0.0921
UniProt O95071_C2314 0.109
KIF4A C1224 (UniProt O95239) 0.191
UniProt P04439_C227 0.137
RPN1 C477 (UniProt P04843) 0.164
SASH1 C799 (UniProt O94885) 0.429
PAPSS2 C155 (UniProt O95340) -0.115
PCNT C2185 (UniProt O95613) 0.359
GLUD1 C327 (UniProt P00367) 0.226
GLUD1 C376 (UniProt P00367) 0.107
KBTBD11 C257 (UniProt O94819) -0.00346
PGLS C32 (UniProt O95336) 0.275
EPRS C1480 (UniProt P07814) -0.128
TTC4 C63 (UniProt O95801) -0.049
POLR1A C613 (UniProt O95602) 0.216
IPO7 C90 (UniProt O95373) -0.228
SEC24B C562 (UniProt O95487) 0.398
ATG7 C524 (UniProt O95352) -0.154
UBXN7 C478 (UniProt O94888) -0.0591
RPLP1 C61 (UniProt P05386) 0.229
UniProt O94813_C907 0.189
PYGL C581 (UniProt P06737) 0.12
PPP1R3D C291 (UniProt O95685) 0.000283
HSPA4L C589 (UniProt O95757) 0.137
LDHB C164 (UniProt P07195) 0.401
TYMS C195 (UniProt P04818) 0.00364
SEC31A C173 (UniProt O94979) 0.195
ENO1 C357 (UniProt P06733) 0.0601
PGLS C156 (UniProt O95336) 0.226
UniProt O95163_C23 0.258
EPRS C1453 (UniProt P07814) -0.0129
SBF1 C553 (UniProt O95248) 0.151
UniProt O95551_C6 0.169

Random excerpt: 2 entries already listed.
log2 ratio of iodoacetamide-alkyne labeling, inactive:
UniProt P04350_C12 0.12
GLUD1 C376 (UniProt P00367) 0.107
